# Laboratory results published in PubChem BioAssay AID493014 (National Center for Advancing Translational Sciences (NCATS), 2011).
# The campaign covered roughly 340,000 compounds. About 170 (0.05%) were called active. Inconclusive results, whose numbers are uncertain, are shown with a selection of clear calls. Calls come from the whole dose curve; as a rule, active = well fitted inhibition curve with a large enough effect in the signal ratio, with a control signal flat (not every such curve was filed as active); inconclusive = small, poorly fitted or top-dose-only effect, or effect the other way, or a change in a side signal; inactive = flat fitted curve, though single readings scatter; the % refers to the signal ratio. Potencies beside an inconclusive call are fits to weak or partial responses and may not hold up.
# Assay: qHTS Assay to Find Inhibitors of Chronic Active B-Cell Receptor Signaling;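 for activity change, negative = inhibition: plate controls were basal doxycycline-induced cells for no effect and cells given 10 µM MG132 for full effect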
# Settings: ABC-DLBCL IkBa-CBG/CBR reporter, luminescence ratio (green luciferase fused to IkBa over red control in TMD8 lymphoma cells), 4 h
# In short: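 Compounds up to 46 uM were incubated four hours with TMD8 cells whose green CBG68 luciferase is fused to IkappaBalpha; red CBR luminescence normalised the signal, and concentration-effect curves were fitted to fusion, red and ratio data.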
# [1] = activity change, negative = inhibition: at 46.1 µM (top of the series)
# Potency is the fitted concentration of half-maximal effect.
smiles,measurement,setting,value
CC1CCCN(c2ncnc3c2nnn3C)C1 (stereo not given),Potency,[1],"inconclusive: 6.31 µM [falling, partial curve, poor fit]"
CC(=O)Nc1cccc(C(=O)OC(C)C(=O)NC2CCCc3ccccc32)c1 (stereo not given),"activity change, negative = inhibition",[1],inconclusive: -6.85%
OCC1=C[C@@H](O)[C@@H]2C=CO[C@@H](O[C@@H]3O[C@H](CO)[C@@H](O)[C@H](O)[C@H]3O)[C@H]12,"activity change, negative = inhibition",[1],inactive
O=C(COc1cccc2ccccc12)NNC(=O)[C@@H]1CCCC[C@@H]1C(=O)O,Potency,[1],"inconclusive: 16.4 µM [falling, single point]"
CC(=O)c1c(C)[nH]c(C(=O)OCc2csc(CC(=O)Nc3ccccc3C)n2)c1C,"activity change, negative = inhibition",[1],inconclusive: -17.2%
COc1cccc(/C=C2\SC(=S)N(NS(=O)(=O)c3ccc(C)cc3)C2=O)c1OC,"activity change, negative = inhibition",[1],inactive
CC1CCCN(C(=O)C2CCN(S(=O)(=O)c3cccc4nsnc34)CC2)C1 (stereo not given),"activity change, negative = inhibition",[1],inactive
Nc1nc(SCc2ccccc2Cl)[nH]c(=O)c1-c1ccccc1,Potency,[1],"inconclusive: 20.6 µM [falling, partial curve]"
CCOC(=O)CNC(=O)CNC(=O)Cn1ccc2ccccc2c1=O,"activity change, negative = inhibition",[1],inconclusive: 2.63%
CC(=O)Nc1ccc(S(=O)(=O)N(c2cccnc2)S(=O)(=O)c2ccc(NC(C)=O)cc2)cc1,"activity change, negative = inhibition",[1],inconclusive: -3.75%
Cc1ccc(C(=O)c2cc([N+](=O)[O-])ccc2N2CCOCC2)c(C)c1,Potency,[1],"inconclusive: 5.62 µM [falling, full curve, poor fit]"
O=C(Nc1nc(-c2ccco2)c(-c2ccco2)s1)c1cnccn1,"activity change, negative = inhibition",[1],inactive
COC(=O)c1cc2oc3ccccc3c2n1Cc1ccccn1,"activity change, negative = inhibition",[1],inconclusive: 2.99%
Cc1ccc(-c2nn3c(C)nnc3c3ccccc23)cc1S(=O)(=O)NC(C)(C)CO,"activity change, negative = inhibition",[1],inactive
O=C(O)c1cccc2c1C(=O)N(Cc1ccccc1)C2,"activity change, negative = inhibition",[1],inconclusive: 1.44%
COC(=O)c1sccc1NC(=O)C1CC2CCC1C2 (stereo not given),"activity change, negative = inhibition",[1],inconclusive: 4.89%
CO/N=C/c1ccc(Sc2ccccc2N)c([N+](=O)[O-])c1,"activity change, negative = inhibition",[1],inconclusive: 9.07%
O=C(NC(=Nc1nc2ccccc2o1)NC(=O)c1ccccc1)c1ccccc1,"activity change, negative = inhibition",[1],inconclusive: -0.725%
COc1ccc(-c2nnc(SCc3nnc(-c4ccccc4)o3)n2C)cc1OC,"activity change, negative = inhibition",[1],inconclusive: -1.88%
O=C(COc1ccccc1Br)Nc1ccc2c(c1)OCCCO2,Potency,[1],"inconclusive: 35.5 µM [rising, single point]"
CCOC(=O)CCCC(=O)Nc1ncnc2c1C(c1ccccc1)c1c(ccc3ccccc13)O2 (stereo not given),"activity change, negative = inhibition",[1],inconclusive: -12%
CCn1nc(NC(=O)c2ccncc2)c2cc3cccc(C)c3nc21,"activity change, negative = inhibition",[1],inactive
CC1=NN(c2ccccc2)C(=O)/C1=C\C=C1\N(C)c2ccccc2C1(C)C,"activity change, negative = inhibition",[1],inconclusive: 1.84%
COC(=O)C1=C(C)NC(=O)CC1c1ccccc1F (stereo not given),"activity change, negative = inhibition",[1],inactive
COc1ccc(C(=O)CSc2nnc(-c3ccco3)c(-c3ccco3)n2)cc1,"activity change, negative = inhibition",[1],inactive
Cc1ccsc1/C=C1\SC(N2CC(C)OC(C)C2)=NC1=O (stereo not given),"activity change, negative = inhibition",[1],inconclusive: 1.23%
O=C1CC(N2CCN(S(=O)(=O)c3ccccc3F)CC2)C(=O)N1c1ccccc1Cl (stereo not given),"activity change, negative = inhibition",[1],inactive
CC(=O)c1ccc(N2CCN(S(=O)(=O)c3c(C)[nH]c(C)c3C(=O)N3CCCCC3)CC2)cc1,"activity change, negative = inhibition",[1],inconclusive: -1.12%
Cc1ccccc1CN1CCN(C(=O)CC(C)C)CC1,"activity change, negative = inhibition",[1],inactive
O=C(NN/C(=N/S(=O)(=O)c1ccc(Cl)cc1)c1ccccc1)c1ccc(O)cc1,Potency,[1],"inconclusive: 0.0116 µM [rising, full curve, poor fit]"
O=C(O)c1cc(N/N=C/c2cccc3ccccc23)ccc1Cl,Potency,[1],"inconclusive: 0.794 µM [falling, full curve, poor fit]"
Cc1ccccc1NC(=O)c1ccc(S(=O)(=O)N2CCCC2)cc1,"activity change, negative = inhibition",[1],inconclusive: -5.65%
O=C(C1CCC(CNS(=O)(=O)c2cccs2)CC1)N1CCN(c2ccc(Cl)cc2)CC1 (stereo not given),"activity change, negative = inhibition",[1],inconclusive: -2.99%
same,"activity change, negative = inhibition",at 46.1 µM (top of the series),inactive: -0.0883%
CN(C)c1ccc(CNc2ncnc3sccc23)cc1,Potency,[1],"inconclusive: 6.31 µM [falling, full curve, poor fit]"
Cc1cc(N=Nc2c(O)c3ccccc3[nH]c2=O)ccc1N=Nc1ccc(C(=O)N(C)C)cc1,Potency,[1],"inconclusive: 7.08 µM [falling, partial curve, poor fit]"
C/C(=N/NC(=O)c1ccc2c(c1)OCO2)c1cccc(NC(=O)C(C)(C)C)c1,"activity change, negative = inhibition",[1],inconclusive: -18.8%
CC(C)c1ccc(NC(=O)c2cc(S(=O)(=O)NC3CCCCC3)ccc2F)cc1,"activity change, negative = inhibition",[1],inconclusive: 15.3%
Cc1cc(NC(=O)C(C)SCC(=O)OC(C)C(=O)Nc2ccc(F)cc2Cl)no1 (stereo not given),Potency,[1],"inconclusive: 25.9 µM [rising, partial curve, poor fit]"
Cc1ccc(OCC(O)CN2CCOCC2)c(C)c1 (stereo not given),"activity change, negative = inhibition",[1],inconclusive: 0.255%
CCCCn1nc(C(=O)NNC(=O)c2ccncc2)c2ccccc2c1=O,"activity change, negative = inhibition",[1],inconclusive: 4.97%
COc1ccc(Cl)cc1NC(=O)COC(=O)CC(C)(C)CC1=NS(=O)(=O)c2ccccc2N1,"activity change, negative = inhibition",[1],inconclusive: -23.1%
COc1ccc(S(=O)(=O)NC(C)C(=O)NCc2ccco2)cc1OC (stereo not given),Potency,[1],"inconclusive: 3.16 µM [falling, partial curve, poor fit]"
COc1ccccc1CNC(=O)C(=O)NCCC1CCCCN1S(=O)(=O)c1ccc(C)cc1 (stereo not given),Potency,[1],"inconclusive: 13 µM [falling, single point]"
CCOP(=O)(OCC)c1nc(-c2cccc3ccccc23)oc1N1CCOCC1,Potency,[1],"inconclusive: 11.6 µM [falling, partial curve]"
C/C(=N\O)c1ccc2c3c([nH]c2c1)CCCC3,"activity change, negative = inhibition",[1],inactive
COc1ccccc1Nc1nc(C)cc(=O)[nH]1,"activity change, negative = inhibition",[1],inconclusive: -1.28%
COc1cccc(CNC(=O)CCC2CCCN(C(=O)c3cccc4c(C)c(C)[nH]c34)C2)c1 (stereo not given),"activity change, negative = inhibition",[1],inconclusive: -29.4%
O=C(CN1CCCCCC1)Nc1ccc(Br)cn1,"activity change, negative = inhibition",[1],inconclusive: 7.14%
CCCNC(=O)c1ccc(N2CCC3(CC2)CC(c2cccc(Br)c2)=NO3)c(NC(=O)c2cccc(OC)c2)c1,"activity change, negative = inhibition",[1],inconclusive: 0.0484%

# Reformatted as tab-separated lines: entries from further up.
smiles	measurement	setting	value
CC(=O)c1c(C)[nH]c(C(=O)OCc2csc(CC(=O)Nc3ccccc3C)n2)c1C	activity change, negative = inhibition	[1]	inconclusive: -17.2%
Cc1ccc(OCC(O)CN2CCOCC2)c(C)c1 (stereo not given)	activity change, negative = inhibition	[1]	inconclusive: 0.255%
